Results are given in words; binding and its absence hold for the method and conditions named. Binding calls can cover weak binding; strength is not graded here. Where a sequence is shown, tags or fusion partners need not be part of it.
Molecular target: DivIVA (bacterial two-hybrid fusion) (S. aureus)
Assay: two-hybrid; bacterial two-hybrid (BACTH, T18/T25 adenylate cyclase fusions) in E. coli BTH101; beta-galactosidase activity judged qualitatively by blue colour on X-Gal

binding: binds
B1: PBP1 (bacterial two-hybrid fusion) (protein, UniProt Q53725 1-744)
chain: MAKQKIKIKKNKIGAVLLVGLFGLLFFILVLRISYIMITGHSNGQDLVMKANEKYLVKNAQQPERGKIYDRNGKVLAEDVERYKLVAVIDKKASANSKKPRHVVDKKETAKKLSTVINMKPEEIEKRLSQKKAFQIEFGRKGTNLTYQDKLKIEKMNLPGISLLPETERFYPNGNFASHLIGRAQKNPDTGELKGALGVEKIFDSYLSGSKGSLRYIHDIWGYIAPNTKKEKQPKRGDDVHLTIDSNIQVFVEEALDGMVERYQPKDLFAVVMDAKTGEILAYSQRPTFNPETGKDFGKKWANDLYQNTYEPGSTFKSYGLAAAIQEGAFDPDKKYKSGHRDIMGSRISDWNRVGWGEIPMSLGFTYSSNTLMMHLQDLVGADKMKSWYERFGFGKSTKGMFDGEAPGQIGWSNELQQKTSSFGQSTTVTPVQMLQAQSAFFNDGNMLKPWFVNSVENPVSKRQFYKGQKQIAGKPITKDTAEKVEKQLDLVVNSKKSHAANYRIDGYEVEGKTGTAQVAAPNGGGYVKGPNPYFVSFMGDAPKKNPKVIVYAGMSLAQKNDQEAYELGVSKAFKPIMENTLKYLNVGKSKDDTSNAEYSKVPDVEGQDKQKAIDNVSAKSLEPVTIGSGTQIKAQSIKAGNKVLPHSKVLLLTDGDLTMPDMSGWTKEDVIAFENLTNIKVNLKGSGFVSHQSISKGQKLTEKDKIDVEFSSENVDSNSTNNSDSNSDDKKKSDSKTDKDKSD
